# Reference: doi:10.1101/645937
# Protein sequences, listed by entry. Tags and fused reporters are not part of them.
# UniProt Q92585: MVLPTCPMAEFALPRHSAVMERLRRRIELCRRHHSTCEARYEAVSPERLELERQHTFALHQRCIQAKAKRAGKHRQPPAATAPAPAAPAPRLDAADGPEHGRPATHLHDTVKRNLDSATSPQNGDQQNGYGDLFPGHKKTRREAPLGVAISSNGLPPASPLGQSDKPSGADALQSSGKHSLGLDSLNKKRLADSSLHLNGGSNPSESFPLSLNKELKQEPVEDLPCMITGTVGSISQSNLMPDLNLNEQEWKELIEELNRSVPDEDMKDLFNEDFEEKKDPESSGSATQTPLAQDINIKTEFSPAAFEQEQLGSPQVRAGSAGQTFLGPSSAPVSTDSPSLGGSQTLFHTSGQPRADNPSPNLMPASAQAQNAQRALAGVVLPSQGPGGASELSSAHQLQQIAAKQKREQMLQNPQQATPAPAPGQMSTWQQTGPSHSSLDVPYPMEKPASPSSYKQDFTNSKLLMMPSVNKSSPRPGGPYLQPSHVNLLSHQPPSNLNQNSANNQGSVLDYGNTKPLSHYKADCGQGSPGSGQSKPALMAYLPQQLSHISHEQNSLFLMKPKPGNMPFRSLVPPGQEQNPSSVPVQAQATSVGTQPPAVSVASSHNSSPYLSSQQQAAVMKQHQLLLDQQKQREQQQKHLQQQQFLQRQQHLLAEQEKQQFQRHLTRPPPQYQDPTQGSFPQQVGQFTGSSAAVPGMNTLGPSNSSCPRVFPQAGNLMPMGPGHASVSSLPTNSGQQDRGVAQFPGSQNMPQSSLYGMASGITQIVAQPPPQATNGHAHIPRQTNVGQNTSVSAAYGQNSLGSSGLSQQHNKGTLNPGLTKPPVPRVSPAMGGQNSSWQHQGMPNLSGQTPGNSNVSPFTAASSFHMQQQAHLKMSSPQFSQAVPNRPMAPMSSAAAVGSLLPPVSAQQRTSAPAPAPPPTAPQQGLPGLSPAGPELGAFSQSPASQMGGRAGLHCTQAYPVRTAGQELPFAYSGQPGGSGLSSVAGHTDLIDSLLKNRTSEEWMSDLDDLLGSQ
# No constants are given. Whether binding was seen depends on the method and setting. In cells and extracts the contact can be indirect. A yes stands for co-enrichment or nearness to the bait. Other partners may have been found. Where a sequence is shown, tags or fusion partners need not be part of it.
# Target: T1, HA-FLAG-tagged NRARP (human) (UniProt Q7Z6K4)
# T1 sequence: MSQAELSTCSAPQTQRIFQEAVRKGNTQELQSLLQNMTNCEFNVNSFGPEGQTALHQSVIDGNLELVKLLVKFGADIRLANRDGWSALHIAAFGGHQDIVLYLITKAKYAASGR
# Assay: affinity purification with mass spectrometry
substance,measurement,value
"MAML1 (endogenous, Jurkat) (from UniProt Q92585 1-1016)",binding,binds
